# Results published in the supplement of paper PMC12823440, “Inhibitors supercharge kinase turnover through native proteolytic circuits” (Nature, 2025).
# Amino acid sequences for entries named in this document (tags omitted). A change or cut given only in a name is not applied to a line headed by its entry.
# UniProt O96013: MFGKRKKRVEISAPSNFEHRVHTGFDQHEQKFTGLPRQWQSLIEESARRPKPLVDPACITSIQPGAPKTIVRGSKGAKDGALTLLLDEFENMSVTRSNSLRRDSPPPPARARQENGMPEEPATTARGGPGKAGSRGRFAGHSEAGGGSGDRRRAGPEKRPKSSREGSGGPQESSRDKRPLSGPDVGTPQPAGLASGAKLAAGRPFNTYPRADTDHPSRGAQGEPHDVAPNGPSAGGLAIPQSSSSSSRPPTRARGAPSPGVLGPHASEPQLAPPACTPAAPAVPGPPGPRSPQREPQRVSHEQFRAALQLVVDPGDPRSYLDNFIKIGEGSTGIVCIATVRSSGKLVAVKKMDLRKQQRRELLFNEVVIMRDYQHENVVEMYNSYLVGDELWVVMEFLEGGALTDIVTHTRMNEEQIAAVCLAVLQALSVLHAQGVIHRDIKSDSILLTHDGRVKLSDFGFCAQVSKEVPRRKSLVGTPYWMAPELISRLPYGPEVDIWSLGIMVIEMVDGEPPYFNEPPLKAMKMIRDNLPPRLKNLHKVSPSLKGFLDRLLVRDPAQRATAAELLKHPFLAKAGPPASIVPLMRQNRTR
# UniProt Q96KB5: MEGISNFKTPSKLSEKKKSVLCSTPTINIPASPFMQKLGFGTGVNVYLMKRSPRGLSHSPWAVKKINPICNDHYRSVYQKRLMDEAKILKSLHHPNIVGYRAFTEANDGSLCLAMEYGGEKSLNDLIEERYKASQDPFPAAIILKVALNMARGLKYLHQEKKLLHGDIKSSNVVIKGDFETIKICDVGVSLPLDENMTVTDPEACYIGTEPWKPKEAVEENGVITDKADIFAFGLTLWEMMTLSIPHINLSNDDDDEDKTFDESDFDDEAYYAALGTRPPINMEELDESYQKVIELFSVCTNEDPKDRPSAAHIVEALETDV
# UniProt P09619, whole entry: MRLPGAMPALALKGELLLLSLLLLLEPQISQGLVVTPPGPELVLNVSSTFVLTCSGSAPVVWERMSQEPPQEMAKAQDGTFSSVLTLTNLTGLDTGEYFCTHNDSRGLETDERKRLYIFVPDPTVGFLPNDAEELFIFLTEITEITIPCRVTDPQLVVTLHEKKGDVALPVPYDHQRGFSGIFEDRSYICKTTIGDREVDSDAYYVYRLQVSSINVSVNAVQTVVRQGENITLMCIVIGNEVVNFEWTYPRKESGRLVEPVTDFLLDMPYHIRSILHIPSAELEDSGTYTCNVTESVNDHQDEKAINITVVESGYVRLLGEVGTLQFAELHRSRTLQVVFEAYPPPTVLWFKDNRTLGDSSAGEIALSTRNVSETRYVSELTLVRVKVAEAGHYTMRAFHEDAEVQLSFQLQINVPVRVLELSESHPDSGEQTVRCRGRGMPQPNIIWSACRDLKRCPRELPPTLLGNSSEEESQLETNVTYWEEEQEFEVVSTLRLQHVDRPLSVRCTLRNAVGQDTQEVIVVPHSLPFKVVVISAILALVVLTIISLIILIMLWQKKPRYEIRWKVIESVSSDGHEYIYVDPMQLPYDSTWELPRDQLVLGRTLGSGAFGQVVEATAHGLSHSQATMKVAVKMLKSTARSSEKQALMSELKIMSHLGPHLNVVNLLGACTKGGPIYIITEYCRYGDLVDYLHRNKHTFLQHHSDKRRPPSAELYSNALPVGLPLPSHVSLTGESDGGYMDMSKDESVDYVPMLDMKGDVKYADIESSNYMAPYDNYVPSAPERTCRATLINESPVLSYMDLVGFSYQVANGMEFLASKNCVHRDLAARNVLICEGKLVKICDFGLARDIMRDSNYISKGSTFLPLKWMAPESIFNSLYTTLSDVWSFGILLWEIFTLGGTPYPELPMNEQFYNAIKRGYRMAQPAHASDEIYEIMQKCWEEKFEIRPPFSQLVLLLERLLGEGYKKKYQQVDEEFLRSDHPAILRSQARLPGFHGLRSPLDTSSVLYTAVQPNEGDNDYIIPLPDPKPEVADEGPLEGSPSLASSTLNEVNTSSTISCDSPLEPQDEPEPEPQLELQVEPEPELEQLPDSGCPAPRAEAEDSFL
# UniProt Q15118, whole entry, looked up: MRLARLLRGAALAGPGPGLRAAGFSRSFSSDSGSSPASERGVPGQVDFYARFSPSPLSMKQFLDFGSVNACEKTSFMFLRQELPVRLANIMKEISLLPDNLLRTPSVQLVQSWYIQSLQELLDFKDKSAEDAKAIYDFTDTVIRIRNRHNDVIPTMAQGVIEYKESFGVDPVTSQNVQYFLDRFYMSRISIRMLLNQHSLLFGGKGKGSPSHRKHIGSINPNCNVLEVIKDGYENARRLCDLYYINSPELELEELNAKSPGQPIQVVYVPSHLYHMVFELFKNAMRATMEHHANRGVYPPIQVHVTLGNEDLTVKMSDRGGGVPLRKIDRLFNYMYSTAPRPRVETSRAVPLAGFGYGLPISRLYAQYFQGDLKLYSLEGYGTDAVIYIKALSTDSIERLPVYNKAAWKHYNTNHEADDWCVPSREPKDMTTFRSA
# UniProt Q9UBF8: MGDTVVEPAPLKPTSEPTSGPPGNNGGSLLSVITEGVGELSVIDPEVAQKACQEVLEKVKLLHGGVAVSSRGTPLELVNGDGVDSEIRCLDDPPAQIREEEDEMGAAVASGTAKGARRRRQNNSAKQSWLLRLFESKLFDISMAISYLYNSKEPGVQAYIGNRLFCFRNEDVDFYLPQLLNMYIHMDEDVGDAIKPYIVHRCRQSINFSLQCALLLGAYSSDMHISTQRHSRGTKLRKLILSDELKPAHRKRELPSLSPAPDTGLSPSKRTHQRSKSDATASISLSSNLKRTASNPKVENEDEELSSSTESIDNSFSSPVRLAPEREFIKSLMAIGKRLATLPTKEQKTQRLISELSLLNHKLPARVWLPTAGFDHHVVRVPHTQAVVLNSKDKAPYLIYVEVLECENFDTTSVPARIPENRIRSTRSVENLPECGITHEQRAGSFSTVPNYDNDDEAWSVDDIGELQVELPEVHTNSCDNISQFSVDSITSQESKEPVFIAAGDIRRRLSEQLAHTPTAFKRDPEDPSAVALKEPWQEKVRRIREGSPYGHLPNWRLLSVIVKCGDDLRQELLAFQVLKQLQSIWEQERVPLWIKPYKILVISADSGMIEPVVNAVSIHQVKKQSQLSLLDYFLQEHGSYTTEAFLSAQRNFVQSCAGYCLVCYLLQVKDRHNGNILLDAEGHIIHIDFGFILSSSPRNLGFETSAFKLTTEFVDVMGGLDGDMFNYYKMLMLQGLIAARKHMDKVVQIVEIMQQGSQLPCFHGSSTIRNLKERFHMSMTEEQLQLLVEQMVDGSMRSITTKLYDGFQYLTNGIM
# UniProt P07949, whole entry, looked up: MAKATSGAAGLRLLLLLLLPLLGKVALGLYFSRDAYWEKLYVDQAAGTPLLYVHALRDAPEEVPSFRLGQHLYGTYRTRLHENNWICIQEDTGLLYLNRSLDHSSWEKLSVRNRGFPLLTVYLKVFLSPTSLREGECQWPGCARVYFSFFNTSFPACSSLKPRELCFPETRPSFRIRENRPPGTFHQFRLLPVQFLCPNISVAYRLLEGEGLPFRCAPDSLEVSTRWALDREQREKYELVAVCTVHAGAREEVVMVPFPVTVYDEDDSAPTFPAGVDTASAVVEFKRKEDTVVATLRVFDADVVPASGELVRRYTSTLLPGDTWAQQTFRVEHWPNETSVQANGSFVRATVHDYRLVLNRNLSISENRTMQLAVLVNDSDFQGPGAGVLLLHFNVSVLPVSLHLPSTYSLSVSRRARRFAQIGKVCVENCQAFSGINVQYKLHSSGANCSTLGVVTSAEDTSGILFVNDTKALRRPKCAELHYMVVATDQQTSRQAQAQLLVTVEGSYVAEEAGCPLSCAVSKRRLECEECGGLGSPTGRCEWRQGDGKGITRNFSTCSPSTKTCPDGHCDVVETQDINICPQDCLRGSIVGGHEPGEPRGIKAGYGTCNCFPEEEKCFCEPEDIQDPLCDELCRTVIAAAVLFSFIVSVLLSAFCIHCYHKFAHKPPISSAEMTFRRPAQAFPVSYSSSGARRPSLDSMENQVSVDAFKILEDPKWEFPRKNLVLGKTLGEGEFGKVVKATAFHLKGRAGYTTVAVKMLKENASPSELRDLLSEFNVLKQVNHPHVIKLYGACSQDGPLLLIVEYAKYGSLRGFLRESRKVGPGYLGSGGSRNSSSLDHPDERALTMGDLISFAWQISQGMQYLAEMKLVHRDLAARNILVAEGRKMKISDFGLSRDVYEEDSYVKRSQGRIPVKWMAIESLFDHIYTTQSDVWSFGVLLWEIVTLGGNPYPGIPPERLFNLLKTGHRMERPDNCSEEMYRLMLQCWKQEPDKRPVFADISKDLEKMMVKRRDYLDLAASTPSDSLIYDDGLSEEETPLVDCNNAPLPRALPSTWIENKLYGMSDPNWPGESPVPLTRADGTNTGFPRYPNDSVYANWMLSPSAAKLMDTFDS
# UniProt P07949, whole entry M918T, looked up: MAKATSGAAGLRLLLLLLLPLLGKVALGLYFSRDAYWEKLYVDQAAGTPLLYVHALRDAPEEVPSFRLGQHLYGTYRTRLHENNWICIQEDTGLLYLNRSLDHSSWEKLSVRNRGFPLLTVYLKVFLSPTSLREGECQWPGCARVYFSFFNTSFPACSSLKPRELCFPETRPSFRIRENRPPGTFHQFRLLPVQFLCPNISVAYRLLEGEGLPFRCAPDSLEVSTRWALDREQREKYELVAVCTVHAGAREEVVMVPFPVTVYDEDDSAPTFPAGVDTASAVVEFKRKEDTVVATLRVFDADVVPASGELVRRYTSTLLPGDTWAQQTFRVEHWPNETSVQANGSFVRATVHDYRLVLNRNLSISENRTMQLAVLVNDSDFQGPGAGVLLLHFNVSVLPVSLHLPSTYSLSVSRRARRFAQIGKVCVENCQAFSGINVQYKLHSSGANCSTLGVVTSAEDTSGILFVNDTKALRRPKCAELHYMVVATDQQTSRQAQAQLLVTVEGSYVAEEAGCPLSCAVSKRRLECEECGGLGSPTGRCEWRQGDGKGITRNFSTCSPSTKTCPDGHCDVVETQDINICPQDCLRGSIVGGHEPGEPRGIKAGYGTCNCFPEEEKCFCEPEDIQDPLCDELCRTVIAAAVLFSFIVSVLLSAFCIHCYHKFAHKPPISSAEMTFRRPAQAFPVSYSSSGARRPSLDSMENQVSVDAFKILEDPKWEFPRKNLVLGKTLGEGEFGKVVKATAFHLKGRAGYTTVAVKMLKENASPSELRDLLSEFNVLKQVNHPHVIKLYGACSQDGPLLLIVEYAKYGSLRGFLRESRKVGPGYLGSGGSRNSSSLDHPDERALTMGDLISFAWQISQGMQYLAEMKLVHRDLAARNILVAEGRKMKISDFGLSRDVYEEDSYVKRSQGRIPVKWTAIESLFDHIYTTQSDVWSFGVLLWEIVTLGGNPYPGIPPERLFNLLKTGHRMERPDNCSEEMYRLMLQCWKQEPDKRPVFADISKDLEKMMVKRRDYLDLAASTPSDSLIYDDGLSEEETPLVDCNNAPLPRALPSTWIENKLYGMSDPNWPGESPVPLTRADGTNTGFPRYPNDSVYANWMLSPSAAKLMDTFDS
# UniProt Q9BRS2: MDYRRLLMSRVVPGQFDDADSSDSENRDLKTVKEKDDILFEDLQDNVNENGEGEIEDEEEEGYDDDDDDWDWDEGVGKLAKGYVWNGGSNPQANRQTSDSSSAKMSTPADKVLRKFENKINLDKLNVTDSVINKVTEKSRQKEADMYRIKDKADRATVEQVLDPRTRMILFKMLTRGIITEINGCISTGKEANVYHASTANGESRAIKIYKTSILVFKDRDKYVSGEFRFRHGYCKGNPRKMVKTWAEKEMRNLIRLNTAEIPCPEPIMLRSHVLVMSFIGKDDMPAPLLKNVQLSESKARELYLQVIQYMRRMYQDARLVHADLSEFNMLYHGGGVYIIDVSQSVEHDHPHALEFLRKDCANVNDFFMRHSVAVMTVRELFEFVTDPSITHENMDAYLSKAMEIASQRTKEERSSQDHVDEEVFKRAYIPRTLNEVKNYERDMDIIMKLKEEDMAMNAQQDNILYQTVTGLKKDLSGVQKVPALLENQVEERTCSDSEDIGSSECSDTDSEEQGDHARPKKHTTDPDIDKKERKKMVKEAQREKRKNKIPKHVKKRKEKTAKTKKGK
# This is one part of the list. Hit calls seldom repeat between salt and free forms of one compound.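 In K562 cells expressing nanoluciferase-fused kinases, luminescence was recorded at 4 h intervals between 2 and 18 h, normalized as percent of control with DMSO at 100% and a positive control at 0%. A significant (2 sigma) signal drop marks a time point as decreased. The authors' rule for a hit is not shown and takes in more than the number of time points.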
# Tests used:
# Assay in all cases: number of time points (of 5) at which kinase-Nluc abundance scored as decreased, DMSO-normalised (count); higher = more persistent destabilization
# Conditions in all cases: K562; 2-18 h
# [1] = molecular target: NTRK3 (UniProt Q16288)
# [2] = molecular target: PAK4 (UniProt O96013)
# [3] = molecular target: PBK (UniProt Q96KB5)
# [4] = molecular target: PDGFRB (UniProt P09619)
# [5] = molecular target: PDK1 (UniProt Q15118)
# [6] = molecular target: PDPK1 (UniProt O15530)
# [7] = molecular target: PIK4CA (UniProt P42356)
# [8] = molecular target: PIK4CB (UniProt Q9UBF8)
# [9] = molecular target: PLK1 (UniProt P53350)
# [10] = molecular target: PRKAA1 (UniProt Q13131)
# [11] = molecular target: PRKCA (UniProt P17252)
# [12] = molecular target: PTK2 (UniProt Q05397)
# [13] = molecular target: PTK2B (UniProt Q14289)
# [14] = molecular target: RAF1 (UniProt P04049)
# [15] = molecular target: RAF1_S257L (clone: RAF1_mut) (UniProt P04049)
# [16] = molecular target: RET (UniProt P07949)
# [17] = molecular target: RET_M918T (clone: RET_mut) (UniProt P07949)
# [18] = molecular target: RIOK1 (UniProt Q9BRS2)
# [19] = molecular target: RIPK1 (UniProt Q13546)
# [20] = molecular target: RIPK2 (UniProt O43353)
Compound,number of time points [1],number of time points [2],number of time points [3],number of time points [4],number of time points [5],number of time points [6],number of time points [7],number of time points [8],number of time points [9],number of time points [10],number of time points [11],number of time points [12],number of time points [13],number of time points [14],number of time points [15],number of time points [16],number of time points [17],number of time points [18],number of time points [19],number of time points [20]
C[C@H]1CC[C@]2(NC1)O[C@H]1C[C@H]3[C@@H]4CC[C@H]5C[C@@H](O)CC[C@]5(C)[C@H]4CC[C@]3(C)[C@H]1[C@@H]2C [Tomatidine] (2 µM),0,0,0,0,0,0,0,0,0,0,0,0,0,0,0,0,0,0,0,0
COc1ccc2c(c1OC)C(OC)N(C)c1c-2ccc2cc3c(cc12)OCO3 (stereo unspecified) [Angoline] (10 µM),0,0,0,0,0,0,0,0,0,0,0,0,0,0,0,0,0,0,0,0
CC(=O)Oc1ccc(/C=C/c2cc(OC(C)=O)cc(OC(C)=O)c2)cc1 [Triacetylresveratrol] (10 µM),0,0,0,0,0,0,0,0,0,0,0,0,0,0,0,0,0,0,0,0
N#CC(C#N)=NNc1cccc(Cl)c1 (2.5 µM),0,0,0,0,0,0,0,0,0,0,0,0,0,0,2,0,0,1,0,1
C[S+]([O-])/C=C/CCN=C=S (stereo unspecified) [Sulforaphene] (10 µM),0,0,0,0,0,0,0,0,0,0,0,0,0,0,0,0,0,0,0,0
CCCCCCCCCCCCCCCCOC[C@H](COP(=O)([O-])OCC[N+](C)(C)C)OC(C)=O (10 µM),0,0,0,0,0,0,0,0,0,0,0,0,0,0,0,0,0,0,0,0
COc1ccc2c(c1)/C(=C/c1cnc[nH]1)C(=O)N2 (2.5 µM),0,0,0,–,0,0,0,0,0,0,0,0,–,0,0,–,–,0,0,0
C=C[C@H]1CN2CC[C@]3(C(=O)Nc4ccccc43)[C@@H]2C[C@@H]1/C(=C\OC)C(=O)OC [Corynoxeine] (2 µM),0,0,0,0,0,0,0,0,0,0,0,0,0,0,0,0,0,0,0,0
COc1ccc(/C=C/c2cc(OC)c(OC)c(OC)c2)cc1 (2.5 µM),2,0,0,2,1,2,1,1,0,1,0,0,0,2,1,0,0,1,0,3
O=C(N[C@@H](COc1ccc2[nH]c(=O)[nH]c2c1)c1ccccc1)c1cccn(Cc2ccc(F)c(F)c2)c1=O (2.5 µM),0,0,0,0,0,–,0,0,0,0,0,0,0,0,0,0,0,0,0,0
COc1ccc2c(c[n+](C)c3c4cc5c(cc4ccc23)OCO5)c1OC [Chelerythrine (chloride)] (10 µM),4,0,0,0,0,0,0,0,0,0,0,0,0,0,0,0,0,0,3,0
CC(C)=CC[C@@H](OC(=O)CC(C)(C)O)C1=CC(=O)c2c(O)ccc(O)c2C1=O [β-Hydroxyisovalerylshikonin] (2.5 µM),0,0,0,0,0,0,0,0,0,0,0,0,0,0,0,0,0,0,0,0
O=c1[nH]c2ccccc2n1C1CCN(Cc2ccc(-c3[nH]c4cc5ncnc5cc4nc3-c3ccccc3)cc2)CC1 [AKT inhibitor VIII] (2.5 µM),0,0,0,0,0,0,0,0,0,0,0,0,0,0,0,0,0,0,0,0
COC[C@H]1OC(=O)c2coc3c2[C@@]1(C)C1=C(C3=O)[C@@H]2CCC(=O)[C@@]2(C)C[C@H]1OC(C)=O [Wortmannin] (2.5 µM),0,0,0,0,0,3,0,2,–,0,0,4,0,1,3,0,2,0,3,0
COc1ccc2c(c1)[nH]c1c(C)nccc12 [Harmine] (10 µM),0,0,0,0,0,0,0,0,0,0,0,0,0,0,0,0,0,0,0,0
O=c1cc(O)c2ccccc2o1 [4-Hydroxycoumarin] (10 µM),0,0,0,0,0,0,0,0,0,0,0,0,0,0,0,0,0,0,0,0
CC(C)(C)c1cc(C=C(C#N)C#N)cc(Br)c1O (2.5 µM),0,0,0,0,0,0,0,0,0,0,0,0,0,0,0,0,0,0,0,0
COc1cc2c(cc1F)C(c1ccccc1Cl)=Nc1c(n[nH]c1C)N2 (0.5 µM),0,0,0,0,0,0,0,0,0,0,0,0,0,0,0,–,–,0,0,0
N#CC(C#N)=Cc1ccc([N+](=O)[O-])c(O)c1 (10 µM),0,0,0,0,0,0,0,0,0,0,0,0,0,0,0,0,0,0,0,0
O=C(O)c1sc2cc(Cl)ccc2c1Cl (10 µM),0,0,0,0,0,0,0,0,0,0,0,0,0,0,0,0,0,0,0,0
Cc1n[nH]cc1-c1cc2nc([C@@H]3CC4CCN3CC4)[nH]c(=O)c2s1 [Simurosertib] (2.5 µM),0,0,0,0,0,0,0,0,0,0,0,0,0,0,0,0,0,0,0,0
N#CC(C#N)=Cc1ccc(O)c(O)c1 [Tyrphostin 23] (10 µM),0,0,0,0,0,0,0,0,0,0,0,0,–,0,0,0,0,0,0,0
O=c1ccc2cc(O[C@@H]3O[C@H](CO)[C@@H](O)[C@H](O)[C@H]3O)c(O)cc2o1 [Esculin] (10 µM),0,0,0,0,0,0,0,0,0,0,0,0,0,0,0,0,0,0,0,0

# Already shown: two of the compounds above.
Compound,number of time points [1],number of time points [2],number of time points [3],number of time points [4],number of time points [5],number of time points [6],number of time points [7],number of time points [8],number of time points [9],number of time points [10],number of time points [11],number of time points [12],number of time points [13],number of time points [14],number of time points [15],number of time points [16],number of time points [17],number of time points [18],number of time points [19],number of time points [20]
N#CC(C#N)=NNc1cccc(Cl)c1 (2.5 µM),0,0,0,0,0,0,0,0,0,0,0,0,0,0,2,0,0,1,0,1
C[S+]([O-])/C=C/CCN=C=S (stereo unspecified) [Sulforaphene] (10 µM),0,0,0,0,0,0,0,0,0,0,0,0,0,0,0,0,0,0,0,0
